# This list was built around the results that the source calls inconclusive (neither active nor inactive); the mix of calls is not that of the screen. For part of these data: A potency beside an inconclusive call is a rough fit, not a confirmed value. More than one record can exist for a structure, and the calls need not agree. Activity calls are given as the source filed them. Unless noted, the call rests on the fitted dose curve; in most records, active means well fitted curve in the direction sought with a large enough effect; inconclusive means small, poorly fitted or top-dose-only effect, or another doubt; inactive means no such curve, though single readings can be large; an effect the other way counts as inactive or inconclusive.
# Amino acid sequences for entries named in this document (tags omitted). A change or cut given only in a name is not applied to a line headed by its entry.
# UniProt Q8WZA2: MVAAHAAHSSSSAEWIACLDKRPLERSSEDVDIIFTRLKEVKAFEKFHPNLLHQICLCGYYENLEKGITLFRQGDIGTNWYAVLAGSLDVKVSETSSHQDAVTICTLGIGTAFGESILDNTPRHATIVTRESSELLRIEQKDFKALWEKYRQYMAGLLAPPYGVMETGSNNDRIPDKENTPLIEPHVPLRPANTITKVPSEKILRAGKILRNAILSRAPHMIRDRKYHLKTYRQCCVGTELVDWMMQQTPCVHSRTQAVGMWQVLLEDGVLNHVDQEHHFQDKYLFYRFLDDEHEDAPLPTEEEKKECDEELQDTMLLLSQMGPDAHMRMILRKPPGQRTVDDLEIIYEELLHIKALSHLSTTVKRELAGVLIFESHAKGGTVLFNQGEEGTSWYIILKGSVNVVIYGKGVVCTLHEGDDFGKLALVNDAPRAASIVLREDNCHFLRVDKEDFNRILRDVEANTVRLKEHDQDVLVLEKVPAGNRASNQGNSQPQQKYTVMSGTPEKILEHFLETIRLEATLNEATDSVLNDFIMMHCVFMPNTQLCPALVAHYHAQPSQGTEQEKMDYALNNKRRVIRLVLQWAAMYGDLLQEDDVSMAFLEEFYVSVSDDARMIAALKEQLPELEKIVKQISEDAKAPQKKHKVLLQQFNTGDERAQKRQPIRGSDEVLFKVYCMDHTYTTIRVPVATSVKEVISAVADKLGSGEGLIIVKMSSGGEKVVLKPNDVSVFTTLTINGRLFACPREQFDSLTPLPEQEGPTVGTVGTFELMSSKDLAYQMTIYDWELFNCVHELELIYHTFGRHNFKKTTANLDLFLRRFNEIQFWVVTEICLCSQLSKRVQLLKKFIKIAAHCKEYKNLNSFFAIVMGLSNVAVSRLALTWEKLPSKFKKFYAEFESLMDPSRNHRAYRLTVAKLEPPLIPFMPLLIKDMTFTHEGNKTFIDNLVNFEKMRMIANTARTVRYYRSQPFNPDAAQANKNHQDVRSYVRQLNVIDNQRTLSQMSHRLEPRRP
# UniProt P27695, whole entry, looked up: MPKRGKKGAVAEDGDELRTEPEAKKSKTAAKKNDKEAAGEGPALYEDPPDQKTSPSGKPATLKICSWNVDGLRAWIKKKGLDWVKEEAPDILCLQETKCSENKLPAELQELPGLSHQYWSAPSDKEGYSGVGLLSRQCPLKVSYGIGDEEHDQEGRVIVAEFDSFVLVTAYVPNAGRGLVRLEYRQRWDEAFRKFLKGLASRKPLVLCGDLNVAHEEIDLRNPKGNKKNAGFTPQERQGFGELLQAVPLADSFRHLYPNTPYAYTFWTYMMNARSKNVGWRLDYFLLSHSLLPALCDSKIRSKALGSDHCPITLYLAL
# UniProt Q9UNA4: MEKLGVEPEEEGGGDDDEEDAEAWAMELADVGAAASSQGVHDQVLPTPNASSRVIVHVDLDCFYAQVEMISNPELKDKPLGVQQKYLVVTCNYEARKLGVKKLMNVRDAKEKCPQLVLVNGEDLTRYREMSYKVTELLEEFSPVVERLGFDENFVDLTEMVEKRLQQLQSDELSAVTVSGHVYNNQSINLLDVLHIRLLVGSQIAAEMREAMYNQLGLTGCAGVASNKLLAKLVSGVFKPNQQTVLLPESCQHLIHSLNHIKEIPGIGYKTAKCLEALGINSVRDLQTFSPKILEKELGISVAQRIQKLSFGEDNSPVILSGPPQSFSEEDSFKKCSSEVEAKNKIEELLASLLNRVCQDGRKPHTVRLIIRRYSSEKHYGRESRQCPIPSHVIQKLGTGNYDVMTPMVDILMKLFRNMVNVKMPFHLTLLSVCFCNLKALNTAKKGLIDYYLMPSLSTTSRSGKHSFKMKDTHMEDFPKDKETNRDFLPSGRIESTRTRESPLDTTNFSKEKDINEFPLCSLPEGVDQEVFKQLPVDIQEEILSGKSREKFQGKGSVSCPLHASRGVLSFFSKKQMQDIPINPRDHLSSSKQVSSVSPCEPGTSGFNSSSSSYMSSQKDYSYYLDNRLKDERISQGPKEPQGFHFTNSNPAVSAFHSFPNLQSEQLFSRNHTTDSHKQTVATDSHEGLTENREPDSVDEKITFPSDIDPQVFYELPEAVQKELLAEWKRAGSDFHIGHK
# Tests used:
# [1] = biological target: Lysosomal alpha-glucosidase (Homo sapiens) (UniProt P10253); assay: Confirmation of Inhibitors and Activators of Purified Human alpha-Glucosidase (AID 2115; active means well fitted curve in either direction with a large enough effect; inconclusive means small, poorly fitted or top-dose-only effect)
# Procedure, shortened: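 Purified human enzyme (4 nM) with 4-methylumbelliferyl-alpha-D-glucopyranoside (400 uM), compounds up to 77 uM, in citrate/phosphate buffer pH 5.0 with 0.005% Tween-20. After 20 min at RT, stopped at pH 10; fluorescence ex 365/em 440 nm; AC50 from Hill fits.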
# [2] = biological target: Rap guanine nucleotide exchange factor 3 (Homo sapiens) (UniProt O95398); assay: Confirmatory qHTS for antagonist of cAMP-regulated guanine nucleotide exchange factor 3 (EPAC1) (AID 1645880); conditions: EPAC1 Rap1B-BODIPY-GDP exchange, fluorescence; activity, negative = inhibition: at 115 µM (top of the series); further: nearly all actives have a fitted effect of over 55% in size; further: potency means the concentration at half of the fitted maximal effect;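 on activity, negative = inhibition: plate controls were DMSO only for no effect and full effect of the ATA control for full effect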
# Procedure, shortened: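 Nucleotide exchange uses 100 nM EPAC1, 250 nM RAP1B-BODIPY-GDP and 50 uM GDP, with compounds in a concentration-titration series. After 5 min at room temperature, fluorescence (480 nm ex/540 nm em) is read every 5 min for 30 min. Data are normalized to control ATA and DMSO.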
# [3] = biological target: Rap guanine nucleotide exchange factor 4 (Homo sapiens) (UniProt Q8WZA2); assay: Confirmatory qHTS for agonist of cAMP-regulated guanine nucleotide exchange factor 4 (EPAC2) (AID 1645884); conditions: EPAC2 GEF activity, Rap1B-BODIPY-GDP fluorescence; activation: at 154 µM (top of the series), percent relative to cAMP agonist control;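 further: nucleotide exchange releases bodipy-GDP from Rap1 and this lowers its fluorescence; nearly all actives have a fitted effect of over 65% in size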; further: potency means the concentration at half of the fitted maximal effect; on activation: on the % scale 0 is the no-effect control and ±100 the full control effect
# [4] = biological target: Rap guanine nucleotide exchange factor 4 (Homo sapiens) (UniProt Q8WZA2); assay: Confirmatory qHTS for antagonist of cAMP-regulated guanine nucleotide exchange factor 4 (EPAC2) (AID 1645885); conditions: activity change, negative = inhibition: at 12.7 µM (top of the series) unless noted; further: nearly all actives have a fitted effect of over 25% in size; further: potency means the concentration at half of the fitted maximal effect; on activity change, negative = inhibition: on the % scale 0 is the no-effect control and ±100 the full control effect
# [5] = biological target: Rap guanine nucleotide exchange factor 3 (Homo sapiens) (UniProt O95398); assay: Counterscreen qHTS for agonist of cAMP-regulated guanine nucleotide exchange factor 3 (EPAC1) (AID 1645889); conditions: EPAC1 Rap1B-BODIPY-GDP exchange, fluorescence; activation: at 154 µM (top of the series) unless noted; further: nearly all actives have a fitted effect of over 40% in size; further: potency means the concentration at half of the fitted maximal effect; on activation: % of control where 0% means no effect
# Procedure, shortened: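 Measured: fluorescence of BODIPY-GDP bound to Rap1B, which falls as exchange proceeds. Conditions include 50 uM competing GDP, 5 and 30 min reads, and a later cAMP challenge for antagonist detection.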
# [6] = biological target: DNA repair nuclease/redox regulator APEX1 (Homo sapiens) (UniProt P27695); assay: Confirmation qHTS Assay for Inhibitors of the Human Apurinic/apyrimidinic Endonuclease 1 (APE1) (AID 2572); further: potency means the concentration at half of the fitted maximal effect; nearly all actives have a fitted effect of over 30% in size
# Procedure, shortened: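 Fluorescence gain at 598 nm (Ex 525 nm) reports APE1 cleavage of a TAMRA/BHQ-2-labelled duplex carrying a tetrahydrofuran abasic site, 50 nM final. Activity taken as third-minus-first kinetic read after 15 min compound preincubation, room temperature.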
# [7] = qHTS Assay for Inhibitors of Fructose-1,6-bisphosphate Aldolase from Giardia Lamblia: Giardia lamblia growth inhibition (AID 2785); conditions: Giardia lamblia trophozoite growth inhibition; activity change, negative = inhibition: at 38.3 µM (top of the series) unless noted; further: potency means the concentration at half of the fitted maximal effect; nearly all actives have a fitted effect of over 70% in size
# Procedure, shortened: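 G. lamblia WB trophozoites (100 cells/well) in modified TYI-S-33 medium, pH 7.0, were exposed to pin-transferred compounds or DMSO for 48 h at 37C in sealed bags. Viability was read as ATPlite luminescence after 20 min at room temperature.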
# [8] = biological target: DNA polymerase iota (Homo sapiens) (UniProt Q9UNA4); assay: qHTS for Inhibitors of Polymerase Iota: Confirmatory Assay for Cherry-picked Compounds (AID 720496); conditions: Pol iota primer extension, TAMRA/BHQ fluorescence; further: potency means the concentration at half of the fitted maximal effect
# Procedure, shortened: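 Human Pol iota (10 nM) was preincubated 15 min at room temperature with compound, then started with 50 nM TAMRA/BHQ-2 quenched primer-template substrate. Fluorescence (ex 525/em 598 nm) was read at 0 and 10 min.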
smiles,measurement,setting,value
CC(=O)c1ccc(N2CCN(S(=O)(=O)c3ccc4c(c3)C(Cl)(Cl)C(=O)N4)CC2)cc1,Potency,[1],inactive
same,Potency,[2],active: 26.9 µM
same,Potency,[3],"inconclusive: 112 µM [activator, single point]"
same,Potency,[4],"inconclusive: 8.49 µM [inhibitor, full curve, poor fit]"
same,activation,[5],inconclusive: 25.2% [activator]
CN(CC(=O)Nc1cccc(F)c1)C(=O)/C=C/c1cc(Br)ccc1OC(F)F,Potency,[2],"inconclusive: 47.8 µM [inhibitor, partial curve]"
same,Potency,[3],"inconclusive: 50.1 µM [activator, partial curve, poor fit]"
same,Potency,[4],"inconclusive: 21.3 µM [inhibitor, partial curve, poor fit]"
same,activation,[5],inconclusive: 41% [activator]
O=C(O)c1ccc(NS(=O)(=O)c2ccc3c(c2)C2C=CCC2C(c2ccccc2F)N3)cc1 (configuration not stated),Potency,[2],"inconclusive: 19 µM [inhibitor, full curve]"
same,Potency,[3],"inconclusive: 112 µM [activator, partial curve, poor fit]"
same,Potency,[4],active: 75.7 µM
same,Potency,[5],active: 44.7 µM
NC1=C(Cl)C(=O)c2ccc(S(N)(=O)=O)cc2C1=O,Potency,[2],active: 75.7 µM
same,Potency,[3],inactive
same,Potency,[4],"inconclusive: 1.07 µM [inhibitor, partial curve, poor fit]"
same,Potency,[5],"inconclusive: 2.24 µM [activator, full curve]"
CC(=O)C(C(c1ccccc1)c1c[nH]c2ccccc12)[N+](=O)[O-] (configuration not stated),Potency,[2],inactive
same,Potency,[3],"inconclusive: 112 µM [activator, single point]"
same,Potency,[4],"inconclusive: 21.3 µM [inhibitor, partial curve, poor fit]"
same,activation,[5],inconclusive: 29.6% [activator]
CC1COc2ccccc2N1S(=O)(=O)c1cc(Cl)ccc1Cl (configuration not stated),Potency,[2],inactive
same,Potency,[3],"inconclusive: 100 µM [activator, partial curve]"
same,Potency,[4],"inconclusive: 26.9 µM [inhibitor, partial curve]"
same,Potency,[5],"inconclusive: 0.398 µM [activator, full curve, poor fit]"
c1ccc(C(c2cccs2)c2c[nH]c3ccccc23)cc1 (configuration not stated),Potency,[2],"inconclusive: 84.9 µM [inhibitor, single point]"
same,Potency,[3],"inconclusive: 39.8 µM [activator, partial curve, poor fit]"
same,Potency,[4],"inconclusive: 2.69 µM [inhibitor, partial curve]"
same,activation,[5],inconclusive: 69.2% [activator]
Cn1c(N)c(C(=O)COC(=O)CCCOc2ccc(Cl)cc2Cl)c(=O)n(C)c1=O,Potency,[2],"inconclusive: 84.9 µM [inhibitor, partial curve, poor fit]"
same,Potency,[3],inactive
same,Potency,[4],active: 37.9 µM
same,Potency,[5],"inconclusive: 0.891 µM [activator, full curve, poor fit]"
Cc1nc(N)sc1-c1csc(Nc2ncccn2)n1,Potency,[6],"inconclusive: 8.91 µM [inhibitor, full curve, poor fit]"
same,Potency,[2],"inconclusive: 84.9 µM [inhibitor, partial curve, poor fit]"
same,Potency,[3],"inconclusive: 112 µM [activator, single point]"
same,Potency,[4],inactive
same,Potency,[5],inactive
CCn1c(SCC(=O)c2ccc(O)c(O)c2)nnc1-c1ccccc1OC,Potency,[6],"inconclusive: 5.62 µM [inhibitor, full curve]"
same,Potency,[7],"inconclusive: 50.1 µM [inhibitor, single point]"
same,Potency,[8],"inconclusive: 47.4 µM [inhibitor, partial curve]"
same,Potency,[2],"inconclusive: 33.8 µM [inhibitor, partial curve]"
same,Potency,[3],"inconclusive: 56.2 µM [activator, partial curve]"
same,Potency,[4],active: 9.53 µM
same,activation,[5],inconclusive: 37.2% [activator]
Cc1ccccc1C(=O)Nc1ccccc1N1CCCCC1,Potency,[2],"inconclusive: 0.0239 µM [inhibitor, full curve, poor fit]"
same,Potency,[3],inactive
same,Potency,[4],"inconclusive: 21.3 µM [inhibitor, full curve]"
same,activation,[5],inconclusive: 43.3% [activator]
C[C@@H]1CC=C[C@H]2[C@H]1C(=O)N(Cc1ccccc1)[C@H]2c1ccc(-c2ccoc2)cc1F,Potency,[2],inactive
same,Potency,[3],inactive
same,Potency,[4],"inconclusive: 16.9 µM [inhibitor, full curve]"
same,Potency,[5],"inconclusive: 15.8 µM [activator, single point]"
CN(c1ccccc1)c1nc(N)c([N+](=O)[O-])c(N2CCCCC2)n1,Potency,[2],"inconclusive: 67.5 µM [inhibitor, partial curve, poor fit]"
same,Potency,[3],inactive
same,Potency,[4],"inconclusive: 37.9 µM [inhibitor, partial curve]"
same,Potency,[5],"inconclusive: 15.8 µM [activator, partial curve, poor fit]"

# Exported as tab-separated lines: entries from further up.
smiles	measurement	setting	value
CCn1c(SCC(=O)c2ccc(O)c(O)c2)nnc1-c1ccccc1OC	activation	[5]	inconclusive: 37.2% [activator]
Cc1ccccc1C(=O)Nc1ccccc1N1CCCCC1	Potency	[2]	inconclusive: 0.0239 µM [inhibitor, full curve, poor fit]
same	Potency	[3]	inactive
same	Potency	[4]	inconclusive: 21.3 µM [inhibitor, full curve]
same	activation	[5]	inconclusive: 43.3% [activator]
C[C@@H]1CC=C[C@H]2[C@H]1C(=O)N(Cc1ccccc1)[C@H]2c1ccc(-c2ccoc2)cc1F	Potency	[2]	inactive
same	Potency	[3]	inactive
same	Potency	[4]	inconclusive: 16.9 µM [inhibitor, full curve]
same	Potency	[5]	inconclusive: 15.8 µM [activator, single point]
CN(c1ccccc1)c1nc(N)c([N+](=O)[O-])c(N2CCCCC2)n1	Potency	[2]	inconclusive: 67.5 µM [inhibitor, partial curve, poor fit]
same	Potency	[3]	inactive
